Reference: PubChem BioAssay AID2763 (National Center for Advancing Translational Sciences (NCATS), 2010)
The inconclusive results got no clear call from the source; some entries with a clear call stand among them for comparison. Entries that show only a call come without a potency. Potencies of inconclusive entries are doubtful fits and often do not repeat. The source made the active and inactive calls. Calls come from the whole dose curve; as a rule, active = well fitted inhibition curve with a large enough effect; inconclusive = small, poorly fitted or top-dose-only effect, or effect the other way; inactive = no such curve, though single readings can be large or run the other way.

Assay: Concentration response confirmation VP16 counterscreen for inhibitors of ROR gamma transcriptional activity; note: nearly all actives have a fitted effect of over 70% in size
Text: NIH Molecular Libraries Probe Production Network [MLPCN] NIH Chemical Genomics Center [NCGC] MLPCN Grant: R03 DA026211-01 Assay Provider: Dan Littman, New York University Assay Overview: The retinoic acid-related orphan receptor (ROR) gamma is a transcription factor that has a central role in the differentiation of Th17 cells, a subset of T helper cells that secrete the inflammatory cytokines IL-17, IL-17F, and IL-22. Th17 cells have been implicated in graft versus host disease, autoimmune disease and asthma. ROR gamma is induced in naive T helper cells in the presence of TGF-beta combined with IL-6, IL-21, or IL-23, and thereafter directs the expression of the Th17 lineage cytokines. To identify nonspecific inhibitors, a Drosophila Schneider cell line was stably transfected with two vectors: a gene expressing a fusion of the Gal4 DNA binding domain and the transactivation domain of the viral transcription factor VP16, under the control of the metallothionine promoter and a Photinus luciferase reporter regulated by the Gal4 binding site enhancer, UAS. […] Small molecule inhibitors that inhibit components common to the RORgt and VP16 assays, such as the Gal4 DNA binding domain or the UAS luciferase reporter, will be active in both assays and thus scored as nonspecific.
Assay Protocol Summary: For screening, 600 cells in 4 uL/well were dispensed into white solid 1536-well plates (Grenier) using a solenoid-based dispenser. Following transfer of 23 nL compound or DMSO vehicle by a pin tool, the plates were incubated 1 hr at ambient temperature, and 1 uL/well copper sulfate (700 uM final concentration) was added. The plates were centrifuged 15 s at 1000 RPM and incubated 20 hr at ambient temperature. After addition of 1.5 uL Photinus luciferase detection reagent, the plates were incubated 10 min at ambient temperature and then read by an ViewLux (Perkin Elmer) to detect luminescence.
Potency is the fitted concentration of half-maximal effect.

Compound	Potency
O=C(Nc1ncc(Cc2ccccc2)s1)C1=NCCN1	active: 19.9 µM
CCCCNS(=O)(=O)c1ccc(OCC(=O)N2CCN(Cc3ccc4c(c3)OCO4)CC2)cc1	active: 22.3 µM
OC(COCc1ccc(Cl)cc1)CN1CC=C(c2ccccc2)CC1 (stereo unspecified)	inactive
COc1cc(C(=O)N/N=C/C23CC[C@@H](O)CC2(O)CC[C@@H]2[C@@H]3CCC3(C)C(C4=CC(=O)OC4)CCC23O)ccc1O (stereo partly specified)	inactive
Cc1nc2ccccc2c(=O)n1-c1cc([N+](=O)[O-])cc([N+](=O)[O-])c1	inconclusive: 5.6 µM [activator, partial curve, poor fit]
O=C(c1ccco1)c1cn(Cc2ccccc2Cl)c2ccccc12	inactive
